Laboratory results from PMC4974056, “The proposed channel-enzyme transient receptor potential melastatin 2 does not possess ADP ribose hydrolase activity” (eLife, 2016).
No constants are given. Whether binding was seen depends on the method and setting. Some binding calls cover weakened binding; strength is not graded here.

Molecular target: mitochondrial ADPR pyrophosphatase NUDT9 (UniProt Q9BW91)
Assay: SEC; Superdex 200 10/300 GL, 20 mM Tris (pH 8.5), 100 mM NaCl; affinity-purified proteins, absorbance at 280 nm; Chi4S also run again after five-fold concentration to ~100 uM; both purified

B1: mitochondrial ADPR pyrophosphatase NUDT9 (enzyme, UniProt Q9BW91 59-350)
chain: ENSHNKARTSPYPGSKVERSQVPNEKVGWLVEWQDYKPVEYTAVSVLAGPRWADPQISESNFSPKFNEKDGHVERKSKNGLYEIENGRPRNPAGRTGLVGRGLLGRWGPNHAADPIITRWKRDSSGNKIMHPVSGKHILQFVAIKRKDCGEWAIPGGMVDPGEKISATLKREFGEEALNSLQKTSAEKREIEEKLHKLFSQDHLVIYKGYVDDPRNTDNAWMETEAVNYHDETGEIMDNLMLEAGDDAGKVKWVDINDKLKLYASHSQFIKLVAEKRDAHWSEDSEADCHAL
  binding: binds
